# Among all 290,000 compounds or so, about 800 (0.28%) were called active. Inconclusive means that the source gave no clear call. Such entries were picked first, then a sample of the others.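 The calls were made as follows: active = fall in fluorescence gain of 50% or more versus controls, with final raw signal at or below 3038400; inconclusive = same 50% fall but final raw signal above 3038400; inactive = fall in fluorescence gain under 50%.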
# Protein sequences, listed by entry. Tags and fused reporters are not part of them.
# UniProt Q03530, whole entry, looked up: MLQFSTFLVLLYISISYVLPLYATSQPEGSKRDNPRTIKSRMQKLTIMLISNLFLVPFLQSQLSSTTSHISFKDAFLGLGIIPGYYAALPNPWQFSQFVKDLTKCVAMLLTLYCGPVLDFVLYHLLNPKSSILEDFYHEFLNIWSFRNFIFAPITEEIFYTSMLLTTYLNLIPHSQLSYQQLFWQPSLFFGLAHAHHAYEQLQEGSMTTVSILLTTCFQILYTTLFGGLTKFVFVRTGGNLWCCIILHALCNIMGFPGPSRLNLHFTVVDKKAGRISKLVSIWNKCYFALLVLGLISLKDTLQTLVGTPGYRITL
# Molecular target: CAAX prenyl protease 2 (Saccharomyces cerevisiae (strain ATCC 204508 / S288c)) (UniProt Q03530)
# Test: blockers of Rce1 CaaX peptide cleavage – biochemical, fluorescence, cell-free homogeneous, primary screen (AID 2563)
# Details: yeast membranes, quenched prenylated peptide cleavage fluorescence
row,Structure (SMILES),outcome
1,COc1ccc(-c2cc3nc(C)c(CCC(=O)N4CCN(c5ccccn5)CC4)c(C)n3n2)c(OC)c1,active
2,COc1cc2cc(C(=O)O)[nH]c2c(OC)c1OC,active
3,C=CCNC(=O)CN1CCC(c2nc3cc(C)c(C)cc3[nH]2)CC1,inactive
4,Cc1cc(=O)oc2c(CN3CCN(CCO)CC3)c(O)ccc12,inconclusive
5,N=C1c2c(cc(=O)n3c2[nH]c2ccccc23)CN1CCN1CCOCC1,inconclusive
6,COC(=O)Cc1c(C)c2ccc(O)c(CNCc3ccc(OC)c(OC)c3)c2oc1=O,inconclusive
7,COc1ccc(S(=O)(=O)Cc2ccc(C(=O)NC3CCC(C)CC3)o2)cc1 (stereo not drawn),inactive
8,CC1CC(C)CN(S(=O)(=O)c2cc3c(cc2Cl)NC(=O)CO3)C1 (stereo not drawn),inactive
9,COc1ccc(Cl)cc1NC(=O)C/C(C)=N/NC(=O)c1ccccc1[N+](=O)[O-],inactive
10,COc1ccc(/C=N/NC(=O)Cc2csc(Nc3cccc(C(F)(F)F)c3)n2)c(OC)c1,inactive
11,Cc1ccc(-c2nc3ccccc3[nH]2)cc1NC(=S)NC(=O)c1ccccc1Br,inconclusive
12,CC(=O)c1cc2cc(O)ccc2o1,inconclusive
13,CC1=CC=CC2=NC(=O)CC(C)(C(=O)O)N12 (stereo not drawn),inconclusive
14,COc1ccc(N(CC(=O)N2CCN(c3cccc(Cl)c3)CC2)S(=O)(=O)c2c(C)noc2C)cc1,inactive
15,Cn1c(N2CCOCC2)nc(-c2ccccc2)c1-c1ccccc1,inconclusive
16,CCC(=O)N1N=C(c2ccc(NS(=O)(=O)CC)cc2)CC1c1ccc(C)cc1 (stereo not drawn),inconclusive
17,COc1ccc(Cn2c(N)c(S(=O)(=O)c3cccs3)c3nc4ccccc4nc32)cc1,active
18,C=CCNc1oc(-c2cccs2)nc1C#N,inconclusive
19,N#Cc1c(N2CCCCC2)nc(N)c2c(N)nc(SCC(=O)O)cc12,inconclusive
20,O=C(Cn1nc(-c2ccccc2Cl)ccc1=O)Nc1ccc(Br)cc1,inactive
21,Cc1ccc(-c2nc(Nc3cccc(O)c3)c3ccccc3n2)cc1,inactive
22,O=C(OCCOCCN=C1NS(=O)(=O)c2ccccc21)c1ccccc1,inactive
23,CC(C)(C)c1ccc(-c2csc(NNC3=NCCCCC3)n2)cc1,inactive
24,O=C(Nc1ccc(N2CCCCC2)c(Cl)c1)c1ccc2c(c1)OCCO2,inactive
25,CCN1CCN(CCCNC(=O)c2cc3cc4ccc(OC)cc4nc3o2)CC1,inconclusive
26,CCOC(=O)c1c(-c2ccc(C)cc2)cn2ccccc12,inconclusive

row,Structure (SMILES),outcome
1,CCC1Sc2ccccc2N(CC(=O)NCc2ccccc2OC)C1=O (stereo not drawn),inactive
2,CC1(C)Cc2nc(NCCCO)c(C#N)cc2CO1,inconclusive
3,Cc1nn(Cc2ccccc2)c(Cl)c1C(=O)NCCc1ccc(Cl)cc1,inactive
4,CCOC(=O)c1cc2c(=O)n3ccccc3nc2n(CC(C)C)c1=NC(=O)c1ccco1,inconclusive
5,O=C(OCC(=O)N1CCCC1)c1c2c(nc3ccccc13)CCCCC2,inconclusive
6,COC(=O)c1c(-c2ccc(OC)cc2)oc2ccccc12,inconclusive
7,Cc1cc(NCc2ccco2)n2c(nc3ccccc32)c1C#N,inconclusive
8,CSC1=NC(C)(C)CC2(C)Nc3ccccc3N12 (stereo not drawn),inconclusive
9,CCN(CC)CCNC(=O)c1[nH]c2ccc(OCc3ccccc3)cc2c1C,active
10,COc1ccccc1-c1cc(C(F)(F)F)nc(S(=O)(=O)CCCC(=O)NCc2ccc(F)cc2)n1,active
11,COc1ccc(C2Nc3cc(OC)ccc3-n3cccc32)cc1 (stereo not drawn),inconclusive
12,COc1ccc(CCNC(=O)c2ccc(Cl)cc2Cl)cc1OC,inconclusive
13,COc1ccc(OC)c(/C=N/NC(=O)C(O)c2ccccc2)c1 (stereo not drawn),inconclusive
14,COc1ccc(NC(=O)NNC(=O)c2cc(C3CC3)nc3ccccc23)c(OC)c1,inactive
15,CCCCCCCCCCOC(=O)Cn1c(COc2cccc(OC)c2)[n+](C)c2ccccc21,active
16,CC(=O)N(C)c1ccc(NC(=O)/C=C/c2ccccc2Cl)cc1,active
17,COCc1cc(=O)n2[nH]c(C)c(-c3ccccc3)c2n1,inconclusive
18,O=C(c1ccc(COc2ccccc2Br)o1)N1CCN(c2ccccn2)CC1,inactive
19,C=CCn1cc(CN2CCC(C(=O)Nc3cccc(-c4cccc(F)c4)c3)CC2)c(C)n1,inactive
20,COCCCn1c(C(=O)N2CCOCC2)cc2c(=O)n3ccccc3nc21,inconclusive
21,Cn1ncnc1SCc1cn2cccnc2n1,inconclusive
22,O=C1/C(=C/c2cccs2)SC(=S)N1c1cccc(O)c1,inactive
23,COCCN(CCOC)Cc1c(O)ccc2c3c(c(=O)oc12)CCC3,inconclusive
24,Cc1c(O)c(CN2CCCC2)cc2c3c(c(=O)oc12)CCC3,inconclusive
25,O=S(=O)(c1ccccc1)c1nc(-c2ccco2)oc1N1CCCCC1,active
26,Cc1nc(NCCCO)c(C#N)c2c1COC(C)(C)C2,inconclusive

row,Structure (SMILES),outcome
1,CC1CCC(C(C)C)C(OC(=O)C2=C3c4ccccc4S(=O)(=O)N3CC2)C1 (stereo not drawn),inconclusive
2,COCCN(Cc1ccccc1)C(=O)c1cc(-c2ccc(OC)c(OC)c2)nc2ccccc12,inactive
3,Oc1c(Cl)cc(Cl)cc1C=Nc1ccc2c(c1)OCCO2,inactive
4,Cc1ccc(CNC(=O)CN(C(=O)C2(C)CC(=O)N=C3C=CC=CN32)c2ccc(F)cc2)cc1 (stereo not drawn),inconclusive
5,COC(=O)c1ccc2c(CCO)c[nH]c2c1,inconclusive
6,Cc1cc(=O)oc2c(CN3CCC(C)CC3)c(O)c(Cl)cc12,inconclusive
7,Cc1ccc(CNC(=O)CN(C(=O)C2(C)CC(=O)N=C3C=CC=CN32)c2cc(C)ccc2C)cc1 (stereo not drawn),inconclusive
8,Nc1nnnn1/N=C/c1cccc(OCc2ccccc2Cl)c1,active
9,O=C(NCCc1ccccc1)c1cnc2ccccn2c1=O,inconclusive
10,COC(=O)Cn1c(CN2CCN(C(=O)c3ccco3)CC2)nc2c1c(=O)n(C)c(=O)n2C,inactive
11,COc1ccc(NC2(c3ccc(Cl)cc3)C(=O)c3ccccc3C2=O)cc1,inconclusive
12,CCOC(=O)Nc1ccc2c(CN3C(=O)NC(CC)(CC)C3=O)cc(=O)oc2c1,inconclusive
13,O=C(CSc1nncs1)Nc1ccc(S(=O)(=O)N2CCCC2)cc1,inactive
14,CCOC(=O)c1nc(-c2ccccc2)oc1N1CCOCC1,inconclusive
15,COc1ccc(N(C)C(=O)CCC(=O)Nc2ccc3nc(N4CCOCC4)cc(C)c3c2)c(OC)c1,inconclusive
16,CCOP(=O)(OCC)c1nc(/C=C/c2ccccc2)oc1NCc1ccc(OC)cc1,inconclusive
17,CCCOc1ccccc1C1CC(=O)NC(C)=C1C(=O)OCC(C)C (stereo not drawn),inactive
18,CSC[C@H](NC(=O)COc1cc2c(c3oc(=O)cc(C)c13)CCC(C)(C)O2)C(=O)O,active
19,CC1(C)Cc2nc(N)c(C(=O)NCCO)cc2CO1,inconclusive
20,O=C(Nc1nc(-c2ccccn2)cs1)c1ccc([N+](=O)[O-])o1,active
21,Nc1nonc1-n1nnc(C(=O)N/N=C/c2cccc(Cl)c2)c1CSc1ccc(Cl)cc1,active
22,COc1cc(C)c(S(=O)(=O)n2ccc(C)n2)cc1C,inactive
23,COc1ccccc1Cn1c(/C=C/c2ccccc2)nc2ccccc21,inconclusive
24,Cc1ccccc1N(CC(=O)NC1CCCC1)C(=O)C1(C)CC(=O)N=C2C=CC(Cl)=CN21 (stereo not drawn),inconclusive
25,COc1ccc(-c2oc3ccccc3c2C(=O)OCc2ccc(O)cc2)cc1,inconclusive
26,CC1(C)CC(NC(=O)COc2ccc3c4c(c(=O)oc3c2)CCCC4)CC(C)(C)N1,inconclusive

# 4 compounds already listed, sorted by molecular weight, smallest number first:
row,Structure (SMILES),outcome
3,Oc1c(Cl)cc(Cl)cc1C=Nc1ccc2c(c1)OCCO2,inactive
13,O=C(CSc1nncs1)Nc1ccc(S(=O)(=O)N2CCCC2)cc1,inactive
2,COCCN(Cc1ccccc1)C(=O)c1cc(-c2ccc(OC)c(OC)c2)nc2ccccc12,inactive
7,Cc1ccc(CNC(=O)CN(C(=O)C2(C)CC(=O)N=C3C=CC=CN32)c2cc(C)ccc2C)cc1 (stereo not drawn),inconclusive

# (list continues)

row,Structure (SMILES),outcome
1,O=C(Oc1ccc2c(=O)c(Cl)coc2c1)c1cccnc1,inactive
2,Cc1cccc(-c2nc(C#N)c(NCc3ccco3)o2)c1,inconclusive
3,Cc1cccc(S(=O)(=O)c2c(N)n(Cc3ccco3)c3nc4ccccc4nc23)c1,inconclusive
4,Cc1ccc2nc3c(cc(C(=O)NCC4CCCO4)c(=N)n3CCCOC(C)C)c(=O)n2c1 (stereo not drawn),inconclusive
5,COc1nnc(-c2ccc(C(=O)N3C[C@@H]4C[C@H](C3)c3cccc(=O)n3C4)cc2)c2ccccc12,inactive
6,CC1CCN(C(=O)c2cc3nc(-c4ccccc4)cc(-c4ccccc4)n3n2)CC1,active
7,C=CCN1CN=C(NS(=O)(=O)c2ccc(NC(C)=O)cc2)NC1,inconclusive
8,CCN(CC)CCCNc1oc(-c2cccc(Cl)c2)nc1C#N,inconclusive
9,Cc1ccccc1-c1c(C)oc2cc(O)ccc2c1=O,inconclusive
10,O=C1CN(C(=O)NCC(=O)N2CCCC2)c2ccccc2N1,active
11,COC(=O)Cc1c(C)c2ccc(OCC(=O)N(C)C3CCS(=O)(=O)C3)cc2oc1=O (stereo not drawn),inconclusive
12,CCc1cc(=O)oc2c(C)c(O)c(CN(C)C)cc12,inconclusive
13,CC1=CC2=NC(=O)CC(C)(C(=O)N(CC(=O)NC(C)(C)C)C3CCCC3)N2C=C1 (stereo not drawn),inconclusive
14,CCN(CC)CCCNC(=O)CCC(=O)Nc1ccc2nc(N3CCC(C)CC3)cc(C)c2c1,inconclusive
15,N#Cc1nc(-c2cccs2)oc1N1CCN(c2ccccc2)CC1,inconclusive
16,O=c1[nH]c(NCCO)nc2c1C1(CCCC1)Cc1ccccc1-2,inconclusive
17,O=C(CCNC(=O)N1CC(=O)Nc2ccccc21)NCCc1cccc(F)c1,active
18,Cc1cc(Cl)ccc1NC(=S)NCCCO,inactive
19,CSCCC(NC(C)=O)C(=O)Oc1ccc2c3c(c(=O)oc2c1)CCCC3 (stereo not drawn),inconclusive
20,CCOc1ccc2nc(-c3ccccc3)[nH]c2c1,inconclusive
21,OCCNc1nc(N2CCCCC2)nc2ccccc12,inactive
22,CCOP(=O)(OCC)c1nc(-c2cccc3ccccc23)oc1N1CCOCC1,inconclusive
23,COc1ccccc1-c1c(C)oc2c(CN3CCN(CCO)CC3)c(O)ccc2c1=O,inconclusive
24,O=C(Nc1ccccc1-c1nnn(CC(=O)N2CCCc3ccccc32)n1)c1ccc(Cl)cc1,inactive
25,COc1ccc2c(c1)C1OCCC1C(c1ccco1)N2 (stereo not drawn),inconclusive

# From PubChem BioAssay AID2563 (Broad Institute, 2010)
